The list shows a part of the results.
Columns and labels:
Test in all cases: glycan array binding signal (z-score within array); higher = stronger binding
Settings in all cases: glycan notation: IUPAC condensed, linker removed
[1] = target: Fuc(a1-2)Gal
Method in brief: (§1)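 Glycan array data were curated from 3228 arrays in the Consortium for Functional Glycomics database and kept only where the protein sequence was available. Glycan names were converted to IUPAC-condensed notation, and columns mapping to the same glycan were averaged. The binding signal is a within-array Z-score, averaged across arrays of the same protein sequence at different concentrations or buffers and across linkers. Negative Z-scores can be read as non-binding.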

[2] = target: Fuc(a1-2)Gal(b1-3)GalNAc
Method in brief: as §1

[3] = target: Fuc(a1-2)Gal(b1-3)GalNAc(a1-3)[Fuc(a1-2)]Gal(b1-4)Glc
Method in brief: as §1

[4] = target: Fuc(a1-2)Gal(b1-3)GalNAc(a1-3)[Fuc(a1-2)]Gal(b1-4)GlcNAc
Method in brief: as §1

[5] = target: Fuc(a1-2)Gal(b1-3)GalNAc(b1-3)Gal
Method in brief: as §1

[6] = target: Fuc(a1-2)Gal(b1-3)GalNAc(b1-3)Gal(a1-4)Gal(b1-4)Glc
Method in brief: as §1

[7] = target: Fuc(a1-2)Gal(b1-3)GalNAc(b1-4)[Neu5Ac(a2-3)]Gal(b1-4)Glc
Method in brief: as §1

[8] = target: Fuc(a1-2)Gal(b1-3)GlcNAc
Method in brief: as §1

[9] = target: Fuc(a1-2)Gal(b1-3)GlcNAc(b1-2)Man(a1-3)[Fuc(a1-2)Gal(b1-3)GlcNAc(b1-2)Man(a1-6)]Man(b1-4)GlcNAc(b1-4)GlcNAc
Method in brief: as §1

[10] = target: Fuc(a1-2)Gal(b1-3)GlcNAc(b1-2)Man(a1-3)[Fuc(a1-2)Gal(b1-3)GlcNAc(b1-2)Man(a1-6)]Man(b1-4)GlcNAc(b1-4)[Fuc(a1-6)]GlcNAc
Method in brief: as §1

[11] = target: Fuc(a1-2)Gal(b1-3)GlcNAc(b1-3)Gal(b1-4)Glc
Method in brief: as §1

[12] = target: Fuc(a1-2)Gal(b1-3)GlcNAc(b1-3)GalNAc
Method in brief: as §1

[13] = target: Fuc(a1-2)Gal(b1-3)GlcNAc(b1-3)[Fuc(a1-2)Gal(b1-3)GlcNAc(b1-6)]GalNAc
Method in brief: as §1

[14] = target: Fuc(a1-2)Gal(b1-3)GlcNAc(b1-3)[Fuc(a1-3)[Gal(b1-4)]GlcNAc(b1-6)]Gal(b1-4)Glc
Method in brief: as §1

[15] = target: Fuc(a1-2)Gal(b1-3)GlcNAc(b1-3)[Gal(b1-4)GlcNAc(b1-6)]Gal(b1-4)Glc
Method in brief: as §1

[16] = target: Fuc(a1-2)Gal(b1-3)GlcNAc(b1-3)[Neu5Ac(a2-6)Gal(b1-4)GlcNAc(b1-6)]Gal(b1-4)Glc
Method in brief: as §1

[17] = target: Fuc(a1-2)Gal(b1-3)GlcNAc6S
Method in brief: as §1

[18] = target: Fuc(a1-2)Gal(b1-3)[Fuc(a1-4)]GlcNAc
Method in brief: as §1

[19] = target: Fuc(a1-2)Gal(b1-3)[Fuc(a1-4)]GlcNAc(b1-2)Man(a1-3)[Fuc(a1-2)Gal(b1-3)[Fuc(a1-4)]GlcNAc(b1-2)Man(a1-3)]Man(b1-4)GlcNAc(b1-4)GlcNAc
Method in brief: as §1

[20] = target: Fuc(a1-2)Gal(b1-3)[Fuc(a1-4)]GlcNAc(b1-2)Man(a1-3)[Fuc(a1-2)Gal(b1-3)[Fuc(a1-4)]GlcNAc(b1-2)Man(a1-6)]Man(b1-4)GlcNAc(b1-4)GlcNAc
Method in brief: as §1

[21] = target: Fuc(a1-2)Gal(b1-3)[Fuc(a1-4)]GlcNAc(b1-2)Man(a1-3)[Fuc(a1-2)Gal(b1-3)[Fuc(a1-4)]GlcNAc(b1-2)Man(a1-6)]Man(b1-4)GlcNAc(b1-4)[Fuc(a1-6)]GlcNAc(b1-4)[Fuc(a1-6)]GlcNAc
Method in brief: as §1

[22] = target: Fuc(a1-2)Gal(b1-3)[Fuc(a1-4)]GlcNAc(b1-3)[Fuc(a1-3)[Gal(b1-4)]GlcNAc(b1-6)]Gal(b1-4)Glc
Method in brief: as §1

[23] = target: Fuc(a1-2)Gal(b1-3)[Fuc(a1-4)]GlcNAc(b1-3)[Gal(b1-4)GlcNAc(b1-6)]Gal(b1-4)Glc
Method in brief: as §1

[24] = target: Fuc(a1-2)Gal(b1-4)Fuc(a1-3)]GlcNAc(b1-2)Man(a1-3)[Fuc(a1-2)Gal(b1-4)[Fuc(a1-3)]GlcNAc(b1-2)Man(a1-6)]Man(b1-4)GlcNAc(b1-4)GlcNAc
Method in brief: as §1

[25] = target: Fuc(a1-2)Gal(b1-4)Glc
Method in brief: as §1

[26] = target: Fuc(a1-2)Gal(b1-4)Glc6S
Method in brief: as §1

[27] = target: Fuc(a1-2)Gal(b1-4)GlcNAc
Method in brief: as §1

[28] = target: Fuc(a1-2)Gal(b1-4)GlcNAc(b1-2)Man
Method in brief: as §1

[29] = target: Fuc(a1-2)Gal(b1-4)GlcNAc(b1-2)Man(a1-3)[Fuc(a1-2)Gal(b1-4)GlcNAc(b1-2)Man(a1-6)]Man(b1-4)GlcNAc(b1-4)GlcNAc
Method in brief: as §1

[30] = target: Fuc(a1-2)Gal(b1-4)GlcNAc(b1-2)Man(a1-3)[Fuc(a1-2)Gal(b1-4)GlcNAc(b1-2)Man(a1-6)]Man(b1-4)GlcNAc(b1-4)[Fuc(a1-6)]GlcNAc
Method in brief: as §1

KILRGVCKKIMRTFLRRISKDILTGKK [NK2 (Sus scrofa)]
glycan array binding signal (z-score) [1]: -0.603 | glycan array binding signal (z-score) [2]: -0.095 | glycan array binding signal (z-score) [3]: -0.176 | glycan array binding signal (z-score) [4]: -0.352 | glycan array binding signal (z-score) [5]: 0.02 | glycan array binding signal (z-score) [6]: 0.154 | glycan array binding signal (z-score) [7]: -0.01 | glycan array binding signal (z-score) [8]: -0.652 | glycan array binding signal (z-score) [9]: 0.452 | glycan array binding signal (z-score) [10]: -0.029 | glycan array binding signal (z-score) [11]: -0.039 | glycan array binding signal (z-score) [12]: -0.165 | glycan array binding signal (z-score) [13]: 0.079 | glycan array binding signal (z-score) [14]: -0.252 | glycan array binding signal (z-score) [15]: 0.47 | glycan array binding signal (z-score) [16]: -0.921 | glycan array binding signal (z-score) [17]: 0.182 | glycan array binding signal (z-score) [18]: -0.178 | glycan array binding signal (z-score) [19]: 0.762 | glycan array binding signal (z-score) [20]: 1.93 | glycan array binding signal (z-score) [21]: -0.492 | glycan array binding signal (z-score) [22]: -0.045 | glycan array binding signal (z-score) [23]: -0.228 | glycan array binding signal (z-score) [24]: -0.345 | glycan array binding signal (z-score) [25]: -0.122 | glycan array binding signal (z-score) [26]: 0.153 | glycan array binding signal (z-score) [27]: -0.333 | glycan array binding signal (z-score) [28]: 1.58 | glycan array binding signal (z-score) [29]: -0.016 | glycan array binding signal (z-score) [30]: -0.423

Reference: the supplement of paper PMC8728848
